In patent CN111018985A one finds binding data, which are given here for 31 molecules.

The chains behind the UniProt entries cited, without tags or fusion partners. Residues count along the entry.
UniProt P02769, residues 25-607: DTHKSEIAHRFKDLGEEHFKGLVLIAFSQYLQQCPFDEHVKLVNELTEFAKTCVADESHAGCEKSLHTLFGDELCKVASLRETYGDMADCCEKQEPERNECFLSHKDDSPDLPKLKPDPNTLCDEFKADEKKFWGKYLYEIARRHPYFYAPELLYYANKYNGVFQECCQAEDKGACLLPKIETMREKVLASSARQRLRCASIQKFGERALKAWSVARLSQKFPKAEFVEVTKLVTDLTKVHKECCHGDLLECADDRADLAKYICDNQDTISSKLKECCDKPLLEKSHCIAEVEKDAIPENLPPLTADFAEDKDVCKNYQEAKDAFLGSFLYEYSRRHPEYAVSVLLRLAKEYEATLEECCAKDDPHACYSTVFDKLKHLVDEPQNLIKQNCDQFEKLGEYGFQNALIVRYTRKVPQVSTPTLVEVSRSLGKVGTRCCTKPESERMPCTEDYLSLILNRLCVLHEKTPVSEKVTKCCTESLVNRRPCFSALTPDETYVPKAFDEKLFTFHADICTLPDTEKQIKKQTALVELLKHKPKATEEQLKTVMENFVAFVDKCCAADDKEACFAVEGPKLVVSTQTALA

Numbering of substitutions follows the chain as printed. These are yes or no findings as the source states them, for the method shown. Some entries that bind do so weakly or less than the wild type.

The labels stand for the following.
B1: 1B2 (VHH, not shown: small tags and cut ends)
VHH: QVQLQESGGGTVQAGGSLTLSCAASGYTYNYMGWFRQAPGKEREGVAAIATSSGRAYYADSVKGRFTISQDNGKNTLHLQMNSLKPEDTAMYYCAAGSHYSGYSLSPGRYKYWGQGTQVTVSS
B2: 2C11 (VHH, not shown: small tags and cut ends)
VHH: B1 VHH with A48V, I49M, A50H, S52G, A59V, Q70R, G73A, L77V, L105M
B3: 1C2 (VHH, not shown: small tags and cut ends)
VHH: B1 VHH with A50H, S52G, A56T, A59I, G73A, L77T, H78N, N82T, S101A, L105M
B4: 1B3 (VHH, not shown: small tags and cut ends)
VHH: B1 VHH with A50S, A59V, G73A, L77T, H78Y, L105I
B5: 2D6 (VHH, not shown: small tags and cut ends)
VHH: QVQLQESGGGSVQTGGSLRLSCAASGNSDGAWSMGWFRQAPGKEREGVAALYVFTGITYYAGSVKGRFTISQDKAKNTVYLQMNSLKPEDTAMYYCAAGTAFPTLNRNKYNYWGQGTQVTVSS
B6: 2A11 (VHH, not shown: small tags and cut ends)
VHH: QVQLQESGGGSVQAGGSLRLSCTASGFTLDDSDLGWYRQAPGNECELVSIIRRDGSPYHTYYPDSVKGRFTISQDNAKNTLYLQMNSLKPEDTAVYYCAADPSRYYSDYGAPGCGFNYWGQGTQVTVSS
B7: 2D10 (VHH, not shown: small tags and cut ends)
VHH: QVQLQESGGGSVQAGGSLRLSCAASEYTSSVTFMGWVRQAPGKEREGVATIYTVTGRTYYADSVKGRFTISQDKAKNTVYLQMDSLKPEDTAMYYCAATPFSLSKTTRLAKFGSLNENEYDLWGQGTQVTVSS
B8: 2D11 (VHH, not shown: small tags and cut ends)
VHH: B7 VHH with V54P, D84N
B9: 1D3 (VHH, not shown: small tags and cut ends)
VHH: B7 VHH with G35A, T58S, D84N, T106A
B10: 1A5 (VHH, not shown: small tags and cut ends)
VHH: QVQLQESGGGSVQAGGSLRLACAASGYTYSSSYMGWFRQAPGKEREGVAVIYTGGGRTYYADSVKGRFTVSRDNAKNTVYLQMNSLKPEDTAMYYCAADGSRRNWFSPLDPRKYNYWGQGTQVTVSS
B11: 2C9 (VHH, not shown: small tags and cut ends)
VHH: B10 VHH with G54A, P108Q
B12: 2A7 (VHH, not shown: small tags and cut ends)
VHH: B10 VHH with A21S, G54T, V70I, F106Y, P108Q
B13: 2B9 (VHH, not shown: small tags and cut ends)
VHH: B10 VHH with S11L, A14P, G54S, F106Y
B14: 1D8 (VHH, not shown: small tags and cut ends)
VHH: B10 VHH with A21S, G54T, V70I, F106Y
B15: 2B4 (VHH, not shown: small tags and cut ends)
VHH: B10 VHH with S11L, A14P, A21S, G54F, V70I, F106Y, P108Q, N115L
B16: 2D2 (VHH, not shown: small tags and cut ends)
VHH: B10 VHH with G54S, F106Y
B17: 1A10 (VHH, not shown: small tags and cut ends)
VHH: B10 VHH with S11L, A21S, G54T, V70I, F106Y, P108Q
B18: 1B7 (VHH, not shown: small tags and cut ends)
VHH: B10 VHH with G16E, A21S, V70I, K76E, Q82R, F106Y
B19: 2A4 (VHH, not shown: small tags and cut ends)
VHH: QVQLQESGGGSVQAGGSLRLSCAASSYTGSVNYMAWFRQAPGKEREGVAAIYSGGGSTYYADSVKGRFTISRDNAKNTVYLQMNSLIPEDTATYYCASDQSRRSWFSPLVPGKYSLWGQGTQVTVSS
B20: 2C6 (VHH, not shown: small tags and cut ends)
VHH: QVQLQESGGGSVQAGGSLRLSCAASGSADRRNYVAWFRQAPGKEREGVAALGIVSGFTHYADSVKGRFTISQDNARNTVYLQMNRMIPEDTAMYYCAADSRTRVLISWFLNPDKYNYWGRGTQVTVSS
B21: 2B3 (VHH, not shown: small tags and cut ends)
VHH: B20 VHH with A14T, A28T, V34M, L51I, I53T, V54I, L105I, S107G
B22: 1A2 (VHH, not shown: small tags and cut ends)
VHH: QVQLQESGGGSVQAGGSLRLSCTASGFTSDDSDMGWYRQAPGNECELVSVVRSDGTTYYPPSVRGRFTISQDNAKNTVSLQMNSLKPEDTAVYYCAADPSPYYRDYGAPGCGFNYWGQGTQVTVSS
B23: 1C9 (VHH, not shown: small tags and cut ends)
VHH: QVQLQESGGGSVRAGGSLRLSCAASGYTSSSYCMGWFRQAPGKEREGVAAIYTDTGGGSTYYADSVKGRFTISQGNAKNTLYLQMNSLKPEDTAMYYCAAVERRGGSCYTRYKYAAFAYWGQGTQVTVSS
B24: 2C10 (VHH, not shown: small tags and cut ends)
VHH: QVQLQESGGGSVQAGGSLRLSCVASGYTFSSDCMGWFRQAPGKKREGVAAIYTSGSSTYYADSVKGRFTISRDNAKNTVYLEMNSLKPEDTAIYYCAARRSSGGYCYIGSDFQISLYNNWGQGTQVTVSS
B25: 1D11 (VHH, not shown: small tags and cut ends)
VHH: QVQLQESGGGSVQAGGSLRLSCTASGYTHRMAWFRQAPGKEREGVAAIYTDVGHTYYAASVKGRFTIAQDNANNTAYLQMNSLKPEDTAIYYCAAARGGYSWRKVNEYNYWGQGTQVTVSS
B26: 1C1 (VHH, not shown: small tags and cut ends)
VHH: QVQLQESGGGSVQAGGSLRLSCTASGFSLDDRDMGWYRQAPGNECELVSVIRSDGRTYYPDSVKGRFTISQDNAKRTLYLQMNSLKAEDTAVYYCAADPSRRYSDYGAPGCGFNYWGQGTQVTVSS
B27: 1C3 (VHH, not shown: small tags and cut ends)
VHH: B26 VHH with R56S, R76N, A87P, R102Y
B28: 2C5 (VHH, not shown: small tags and cut ends)
VHH: B26 VHH with R56S, R76N, A87P, R102Y, N114H
B29: 1C10 (VHH, not shown: small tags and cut ends)
VHH: QVQLQESGGGSVQAGGSLRLSCAVSGLTYSSNCMGWFRQAPGKEREGVAAIYNGGNTYYADSVKGRFTISRDNAKNTVYLEMNSLKPEDTAIYYCAARRSSGGYCYIGSDFQISLFNNWGQGTQVTVSS
B30: 2B1 (VHH, not shown: small tags and cut ends)
VHH: QVQLQESGGGSVQAGGSLRLSCAVSGYTLSNKWMGWFRQAPGKEREGVAAIYTGGGRTDYADSVKGRFTISQDNAQNTLYLQMNSLKPEDTAMYYCAAARGYGQNWYRTLRTEAYDIWGQGTQVTVSS
B31: 2D5 (VHH, not shown: small tags and cut ends)
VHH: QVQLQESGGGSVQAGGSLRLSCTASGFTPDGSDMGWYRQAPGNECELVSVIRSGGSTYYTDSVKGRFTISRDNAKNTLYLQMNSLKPEDTAVYYCAADPSRYYSDYGAPGCGFHYWGQGTQVTVSS

The first assay has as its target 牛血清白蛋白(BSA) (牛 (bovine)) (UniProt P02769). Put plainly: ELISA, 100 ng BSA coated, purified VHH, HRP anti-HA, OD450.
B1: the binding entry is “binds”.

On to B2, for which the binding result is recorded as “binds”.

As to B3, the binding result is listed as “binds”.

Turning to B4, the binding result is “binds”.

Take B5: the binding entry was “binds”.

As to B6, the binding result is on record as “binds”.

Turning to B7, the binding entry is “binds”.

For the molecule B8, the binding entry was “binds”.

With B9, the binding result was “binds”.

For the molecule B10, the binding entry is “binds”.

Consider B11, for which the binding result is listed as “binds”.

On to B12, for which the binding result was “binds”.

In the case of B13, the binding entry is “binds”.

On to B14, for which the binding entry is recorded as “binds”.

Consider B15, for which the binding result is on record as “binds”.

For B16, the binding result is “binds”.

Turning to B17, the binding result was “binds”.

Take B18: the binding entry was “binds”.

As to B19, the binding entry was “binds”.

For the molecule B20, the binding result was “binds”.

Consider B21, for which the binding result is “binds”.

Take B22: the binding result is “binds”.

As to B23, the binding entry is listed as “binds”.

As to B24, the binding entry was “binds”.

As to B25, the binding entry is listed as “binds”.

Consider B26, for which the binding result is “binds”.

Turning to B27, the binding entry is reported as “binds”.

Turning to B28, the binding entry is given as “binds”.

Take B29: the binding entry is recorded as “binds”.

B30: the binding result is recorded as “binds”.

On to B31, for which the binding entry is “binds”.

For another assay the target is unchanged. The assay is described as follows: ELISA, crude extract on BSA-Biotin captured by neutravidin, anti-HA detection; positive if OD > 5x control. (An ELISA detects its analyte on a solid surface through an enzyme-linked reagent.)
For the molecule B1, the binding result is listed as “binds”.

Consider B2, for which the binding entry is given as “binds”.

Regarding B3, the binding entry is “binds”.

Regarding B4, the binding result was “binds”.

On to B5, for which the binding result is reported as “binds”.

For B6, the binding result is “binds”.

On to B7, for which the binding entry was “binds”.

Take B8: the binding result was “binds”.

As for B9, the binding entry was “binds”.

For the molecule B10, the binding entry is on record as “binds”.

With B11, the binding entry is “binds”.

Take B12: the binding entry is given as “binds”.

For the molecule B13, the binding result is reported as “binds”.

As for B14, the binding entry was “binds”.

On to B15, for which the binding result was “binds”.

On to B16, for which the binding result is reported as “binds”.

With B17, the binding entry is given as “binds”.

Take B18: the binding result is on record as “binds”.

For B19, the binding entry was “binds”.

For B20, the binding result was “binds”.

As to B21, the binding result was “binds”.

With B22, the binding result was “binds”.

Turning to B23, the binding result is recorded as “binds”.

Turning to B24, the binding result is listed as “binds”.

For B25, the binding result is recorded as “binds”.

Turning to B26, the binding result was “binds”.

For B27, the binding result is reported as “binds”.

B28: the binding result was “binds”.

Take B29: the binding entry is “binds”.

In the case of B30, the binding entry is “binds”.

For the molecule B31, the binding result is given as “binds”.
